Data as given in patent publication US5652335A, “Physiologically active substance well capable of permeating biomembrane” (Teikoku Seiyaku Kabushiki Kaisha, priority 1990, dated 1997).
Not every detail of the peptide structures is certain; ends, links or a residue may be inferred.

How the values were obtained:
[1] = test system: mouse (dd-Y series); test: in vivo analgesic activity by Randall Selitto method; conditions: subcutaneous administration to mouse, 1-50 mg/kg, in DMA: physiological saline (4:6); FIG. 2-5
Experimental: Adamantylated enkephalin derivatives a and b are subcutaneously administrated to a mouse, and an analgesic effect in the central nervous system was measured by Randall Selitto method. That is, the derivatives a and b were dissolved in a mixed solution of DMA: physiological saline solution (4:6) and about 100 μl of the solution was subcutaneously administrated to a mouse (dd-Y series: about 20 g) (1-50 mg/kg), and the analgesic effect was measured on every predetermined time interval after the administration by the Randall Selitto method.

[2] = test system: extirpated intestine of guinea pig; test: suppressing effect on shrinkage of extirpated intestine of guinea pig by electric stimulations (method of Kosterlitz); assay type: cell-based
Experimental: Adamantylated enkephalin derivatives a and b obtained in Examples 1 and 2 were examined for in vivo analgesic effect and in vitro suppressing effect to shrinkage of extirpated intestine of guinea pig by electric stimulations.
A suppressing effect for the shrinkage of extirpated intestine of guinea pig of the adamantylated enkephalin derivatives a and b was measured in accordance with the method of Kosterlitz (H. W. Kosterlitz, A. A. Watterfield, Ann. Rev. Pharmacol., 15, 29, (1975)).

CC(C)C[C@H](NC(=O)[C@H](Cc1ccccc1)NC(=O)CNC(=O)[C@@H](C)NC(=O)[C@@H](N)Cc1ccc(O)cc1)C(=O)OC12CC3CC(CC(C3)C1)C2 [Derivative a, H-Tyr-D.Ala-Gly-Phe-Leu-O-Ada]
analgesic activity [1]: inferior to morphine hydrogen chloride but superior to the controls
Relative Potency [2]: 0.34
suppression for shrinkage, antagonism by naloxon ([2]; extirpated guinea pig intestine): showed suppression for shrinkage each of which was antagonized by naloxon
ED50 (mol) (mean ± s.e.m.) ([2]; suppression of electrically stimulated shrinkage of extirpated guinea pig intestine, in vitro): 9.4 ± 4.82 × 10^-8 mol
